Source: the supplement of paper PMC12823440, “Inhibitors supercharge kinase turnover through native proteolytic circuits” (Nature, 2025)
Where a name gives a salt, the structure may show the parent alone. The list shows a part of the results. The calls rarely recur for the same compound in another form.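 In K562 cells expressing nanoluciferase-fused kinases, luminescence was recorded at 4 h intervals between 2 and 18 h, normalized as percent of control with DMSO at 100% and a positive control at 0%. A significant (2 sigma) signal drop marks a time point as decreased. The authors' rule for a hit is not shown and takes in more than the number of time points.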

Amino acid sequences for entries named in this document (tags omitted). A change or cut given only in a name is not applied to a line headed by its entry.
UniProt P50613: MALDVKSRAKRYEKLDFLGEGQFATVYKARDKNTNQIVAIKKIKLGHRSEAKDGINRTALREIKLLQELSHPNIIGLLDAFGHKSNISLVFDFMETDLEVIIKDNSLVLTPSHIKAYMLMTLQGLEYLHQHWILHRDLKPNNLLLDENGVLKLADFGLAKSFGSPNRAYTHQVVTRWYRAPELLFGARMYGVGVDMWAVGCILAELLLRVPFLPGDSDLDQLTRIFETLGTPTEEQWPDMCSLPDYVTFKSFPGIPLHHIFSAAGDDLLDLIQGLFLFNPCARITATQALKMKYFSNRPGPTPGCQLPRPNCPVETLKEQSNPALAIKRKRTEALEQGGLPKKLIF
UniProt P50750, whole entry: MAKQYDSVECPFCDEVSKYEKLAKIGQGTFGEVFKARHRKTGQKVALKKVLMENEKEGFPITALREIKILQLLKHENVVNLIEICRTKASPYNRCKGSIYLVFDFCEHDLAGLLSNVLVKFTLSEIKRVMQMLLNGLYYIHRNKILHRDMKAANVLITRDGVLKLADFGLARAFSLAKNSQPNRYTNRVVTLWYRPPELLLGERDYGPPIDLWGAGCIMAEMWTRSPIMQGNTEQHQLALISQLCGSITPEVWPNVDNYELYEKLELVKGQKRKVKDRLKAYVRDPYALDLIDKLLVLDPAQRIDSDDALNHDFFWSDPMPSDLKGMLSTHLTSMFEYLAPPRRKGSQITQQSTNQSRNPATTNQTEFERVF
UniProt O96017, whole entry: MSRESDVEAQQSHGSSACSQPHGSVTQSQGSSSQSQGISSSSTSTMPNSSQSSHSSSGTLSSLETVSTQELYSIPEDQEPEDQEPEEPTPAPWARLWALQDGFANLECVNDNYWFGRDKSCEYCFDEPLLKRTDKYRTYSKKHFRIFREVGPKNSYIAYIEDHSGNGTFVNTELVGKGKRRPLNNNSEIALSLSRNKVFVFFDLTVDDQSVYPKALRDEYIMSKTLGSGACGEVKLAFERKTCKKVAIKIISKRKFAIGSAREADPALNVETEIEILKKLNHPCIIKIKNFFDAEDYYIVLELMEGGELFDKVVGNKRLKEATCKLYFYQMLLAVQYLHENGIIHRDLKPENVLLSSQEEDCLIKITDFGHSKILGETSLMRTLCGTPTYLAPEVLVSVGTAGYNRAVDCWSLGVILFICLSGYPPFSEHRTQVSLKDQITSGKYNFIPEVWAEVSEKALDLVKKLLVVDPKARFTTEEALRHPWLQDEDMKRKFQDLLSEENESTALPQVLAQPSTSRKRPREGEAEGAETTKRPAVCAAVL
UniProt P07333, whole entry: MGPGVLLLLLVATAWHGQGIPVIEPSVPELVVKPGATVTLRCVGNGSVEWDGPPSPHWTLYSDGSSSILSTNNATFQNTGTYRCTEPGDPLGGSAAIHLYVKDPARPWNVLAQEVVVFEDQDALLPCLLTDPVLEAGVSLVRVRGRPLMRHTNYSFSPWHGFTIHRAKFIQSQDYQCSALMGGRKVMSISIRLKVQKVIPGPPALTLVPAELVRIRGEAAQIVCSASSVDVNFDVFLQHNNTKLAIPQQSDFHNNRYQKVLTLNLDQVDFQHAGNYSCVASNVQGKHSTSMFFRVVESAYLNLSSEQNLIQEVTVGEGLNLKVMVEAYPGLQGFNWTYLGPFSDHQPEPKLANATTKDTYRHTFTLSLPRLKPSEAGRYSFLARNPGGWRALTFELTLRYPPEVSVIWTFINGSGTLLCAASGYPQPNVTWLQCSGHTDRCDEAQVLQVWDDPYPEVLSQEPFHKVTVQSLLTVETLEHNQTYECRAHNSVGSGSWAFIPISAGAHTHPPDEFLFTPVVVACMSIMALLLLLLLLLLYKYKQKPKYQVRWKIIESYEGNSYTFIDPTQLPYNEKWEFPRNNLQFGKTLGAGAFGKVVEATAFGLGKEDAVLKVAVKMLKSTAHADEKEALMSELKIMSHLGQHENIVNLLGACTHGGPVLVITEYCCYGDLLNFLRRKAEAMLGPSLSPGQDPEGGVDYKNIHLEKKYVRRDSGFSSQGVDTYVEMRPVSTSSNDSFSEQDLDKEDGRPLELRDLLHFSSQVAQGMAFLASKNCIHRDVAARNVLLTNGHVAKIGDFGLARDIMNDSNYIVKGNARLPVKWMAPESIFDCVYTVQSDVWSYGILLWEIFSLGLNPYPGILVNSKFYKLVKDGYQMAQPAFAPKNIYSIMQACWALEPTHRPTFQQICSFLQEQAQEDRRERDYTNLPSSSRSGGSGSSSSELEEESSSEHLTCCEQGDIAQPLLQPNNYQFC
UniProt P41240: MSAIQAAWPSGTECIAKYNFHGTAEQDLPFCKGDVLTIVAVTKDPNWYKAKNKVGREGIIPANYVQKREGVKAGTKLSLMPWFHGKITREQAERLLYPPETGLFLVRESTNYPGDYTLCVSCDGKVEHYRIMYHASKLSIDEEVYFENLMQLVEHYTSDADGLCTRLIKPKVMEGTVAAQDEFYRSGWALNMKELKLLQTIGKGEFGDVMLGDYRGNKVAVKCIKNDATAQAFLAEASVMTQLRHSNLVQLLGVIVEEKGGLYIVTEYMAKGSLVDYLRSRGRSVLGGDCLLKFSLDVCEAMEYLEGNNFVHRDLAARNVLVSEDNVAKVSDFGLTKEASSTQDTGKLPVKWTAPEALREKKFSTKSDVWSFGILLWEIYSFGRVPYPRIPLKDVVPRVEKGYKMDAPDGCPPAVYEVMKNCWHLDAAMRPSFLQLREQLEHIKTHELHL
UniProt P48729: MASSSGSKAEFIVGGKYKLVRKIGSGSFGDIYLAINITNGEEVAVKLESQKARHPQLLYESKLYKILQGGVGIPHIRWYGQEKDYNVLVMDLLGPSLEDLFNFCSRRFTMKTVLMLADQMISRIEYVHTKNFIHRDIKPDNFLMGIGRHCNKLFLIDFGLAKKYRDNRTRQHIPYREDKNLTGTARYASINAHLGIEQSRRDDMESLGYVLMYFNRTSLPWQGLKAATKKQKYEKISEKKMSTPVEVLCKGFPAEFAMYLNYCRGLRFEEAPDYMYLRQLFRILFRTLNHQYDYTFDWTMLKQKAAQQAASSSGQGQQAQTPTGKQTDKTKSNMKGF
UniProt P48730: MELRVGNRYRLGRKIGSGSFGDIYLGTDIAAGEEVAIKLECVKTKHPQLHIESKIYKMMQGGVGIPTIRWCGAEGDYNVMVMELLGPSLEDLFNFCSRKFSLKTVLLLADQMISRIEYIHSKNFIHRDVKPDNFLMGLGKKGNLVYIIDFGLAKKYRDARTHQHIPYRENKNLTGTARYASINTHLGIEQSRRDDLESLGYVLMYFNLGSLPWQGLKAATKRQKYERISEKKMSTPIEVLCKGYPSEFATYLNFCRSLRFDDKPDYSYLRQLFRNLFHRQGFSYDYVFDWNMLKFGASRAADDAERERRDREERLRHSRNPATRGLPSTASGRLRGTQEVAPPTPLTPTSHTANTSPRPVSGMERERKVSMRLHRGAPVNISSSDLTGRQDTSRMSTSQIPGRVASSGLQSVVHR
UniProt Q08345: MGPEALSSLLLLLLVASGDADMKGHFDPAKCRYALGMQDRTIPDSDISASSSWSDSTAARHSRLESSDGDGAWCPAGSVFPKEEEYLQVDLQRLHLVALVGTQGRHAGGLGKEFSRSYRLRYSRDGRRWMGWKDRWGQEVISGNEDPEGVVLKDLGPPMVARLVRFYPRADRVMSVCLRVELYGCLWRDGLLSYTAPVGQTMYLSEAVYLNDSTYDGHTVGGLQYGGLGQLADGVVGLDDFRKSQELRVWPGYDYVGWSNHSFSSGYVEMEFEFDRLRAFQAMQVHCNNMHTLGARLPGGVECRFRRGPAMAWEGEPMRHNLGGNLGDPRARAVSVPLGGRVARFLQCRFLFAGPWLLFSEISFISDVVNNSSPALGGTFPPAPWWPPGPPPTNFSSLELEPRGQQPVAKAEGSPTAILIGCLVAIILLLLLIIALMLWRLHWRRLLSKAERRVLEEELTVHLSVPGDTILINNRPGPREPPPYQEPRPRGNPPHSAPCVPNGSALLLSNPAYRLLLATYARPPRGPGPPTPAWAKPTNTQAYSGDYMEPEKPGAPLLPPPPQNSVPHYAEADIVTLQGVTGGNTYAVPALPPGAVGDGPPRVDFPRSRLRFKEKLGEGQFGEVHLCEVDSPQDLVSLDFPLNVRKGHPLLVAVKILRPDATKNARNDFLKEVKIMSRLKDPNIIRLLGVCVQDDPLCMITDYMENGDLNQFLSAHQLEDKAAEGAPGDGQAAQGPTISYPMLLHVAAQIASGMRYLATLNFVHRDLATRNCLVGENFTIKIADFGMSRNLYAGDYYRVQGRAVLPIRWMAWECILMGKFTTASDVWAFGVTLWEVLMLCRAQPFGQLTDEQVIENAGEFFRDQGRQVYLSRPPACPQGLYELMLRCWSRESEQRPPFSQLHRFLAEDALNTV
UniProt Q9Y463, whole entry, looked up: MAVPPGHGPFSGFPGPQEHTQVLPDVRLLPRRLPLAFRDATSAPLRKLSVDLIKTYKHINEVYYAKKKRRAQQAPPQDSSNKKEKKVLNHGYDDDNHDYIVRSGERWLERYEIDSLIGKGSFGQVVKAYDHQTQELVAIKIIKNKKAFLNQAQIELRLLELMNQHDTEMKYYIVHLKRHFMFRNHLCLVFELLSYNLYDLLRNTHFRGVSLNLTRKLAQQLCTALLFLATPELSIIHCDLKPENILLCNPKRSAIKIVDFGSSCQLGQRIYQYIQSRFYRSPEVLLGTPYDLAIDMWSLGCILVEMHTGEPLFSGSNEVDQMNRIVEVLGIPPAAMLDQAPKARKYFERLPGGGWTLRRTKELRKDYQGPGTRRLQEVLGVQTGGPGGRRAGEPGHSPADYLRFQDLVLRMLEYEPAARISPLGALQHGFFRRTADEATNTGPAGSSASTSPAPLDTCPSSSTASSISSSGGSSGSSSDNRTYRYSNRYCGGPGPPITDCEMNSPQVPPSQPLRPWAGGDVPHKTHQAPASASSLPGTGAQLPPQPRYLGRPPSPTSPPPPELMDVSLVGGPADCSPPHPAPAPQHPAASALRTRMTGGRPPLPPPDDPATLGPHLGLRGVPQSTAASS
UniProt Q92630: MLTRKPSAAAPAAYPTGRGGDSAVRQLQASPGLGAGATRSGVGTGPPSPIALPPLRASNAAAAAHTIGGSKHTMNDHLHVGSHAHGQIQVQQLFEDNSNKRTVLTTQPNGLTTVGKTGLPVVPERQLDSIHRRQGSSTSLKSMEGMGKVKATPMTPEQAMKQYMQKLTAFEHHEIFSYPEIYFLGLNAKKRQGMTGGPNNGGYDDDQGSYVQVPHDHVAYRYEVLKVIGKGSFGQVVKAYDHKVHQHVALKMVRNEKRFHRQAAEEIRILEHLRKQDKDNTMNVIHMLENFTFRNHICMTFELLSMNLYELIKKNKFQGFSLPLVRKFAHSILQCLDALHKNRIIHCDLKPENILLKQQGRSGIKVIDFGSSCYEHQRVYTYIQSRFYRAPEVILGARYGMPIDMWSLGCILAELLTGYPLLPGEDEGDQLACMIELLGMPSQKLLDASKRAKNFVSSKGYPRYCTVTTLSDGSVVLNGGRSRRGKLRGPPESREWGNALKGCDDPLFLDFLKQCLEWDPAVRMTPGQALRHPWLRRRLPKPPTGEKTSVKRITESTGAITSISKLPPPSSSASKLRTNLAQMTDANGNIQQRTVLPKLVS

What was measured:
Assay in all cases: kinase-Nluc reporter destabilization hit call (1 = scored as downregulated) (binary); higher = compound decreases kinase abundance
Conditions in all cases: K562, 2-18 h
[1] = target: CDK7 (UniProt P50613)
[2] = target: CDK9 (UniProt P50750)
[3] = target: CHEK2 (UniProt O96017)
[4] = target: CSF1R (UniProt P07333)
[5] = target: CSK (UniProt P41240)
[6] = target: CSNK1A1 (UniProt P48729)
[7] = target: CSNK1D (UniProt P48730)
[8] = target: DDR1 (UniProt Q08345)
[9] = target: DYRK1B (UniProt Q9Y463)
[10] = target: DYRK2 (UniProt Q92630)

Measured: kinase-Nluc reporter destabilization hit call

CCN(CC)Cc1ccc(OC)c(-c2cc3c(-c4ccc(C(=O)O)c(C(C)C)c4)ccnc3[nH]2)c1
inactive: [1]; 2.5 µM 0 | [1]; 10 µM 0 | [2]; 2.5 µM 0 | [2]; 10 µM 0 | [3]; 2.5 µM 0 | [3]; 10 µM 0 | [4]; 2.5 µM 0 | [4]; 10 µM 0 | [5]; 2.5 µM 0 | [5]; 10 µM 0 | [6]; 2.5 µM 0 | [6]; 10 µM 0 | [7]; 2.5 µM 0 | [7]; 10 µM 0 | [8]; 2.5 µM 0 | [8]; 10 µM 0 | [9]; 2.5 µM 0 | [9]; 10 µM 0 | [10]; 2.5 µM 0 | [10]; 10 µM 0

Cc1[nH]c(/C=C2\C(=O)Nc3ccc(F)cc32)c(C)c1C(=O)NCCN1CCCC1 [Toceranib (phosphate)]
inactive: [1]; 2 µM 0 | [2]; 2 µM 0 | [3]; 2 µM 0 | [4]; 2 µM 0 | [5]; 2 µM 0 | [6]; 2 µM 0 | [7]; 2 µM 0 | [8]; 2 µM 0 | [9]; 2 µM 0 | [10]; 2 µM 0

C=CC(=O)Nc1cc(Nc2nccc(-c3cn(C)c4ccccc34)n2)c(OC)cc1N(C)CCN(C)C [Osimertinib (dimesylate)]
inactive: [1]; 2.5 µM 0 | [2]; 2.5 µM 0 | [3]; 2.5 µM 0 | [4]; 2.5 µM 0 | [5]; 2.5 µM 0 | [6]; 2.5 µM 0 | [7]; 2.5 µM 0 | [8]; 2.5 µM 0 | [9]; 2.5 µM 0 | [10]; 2.5 µM 0

CC(=O)N[C@H](Cc1ccc(O)cc1)C(=O)N[C@H](CCCN=C(N)N)C(=O)N[C@H](Cc1ccccc1)C(N)=O
inactive: [1]; 10 µM 0 | [2]; 10 µM 0 | [3]; 10 µM 0 | [4]; 10 µM 0 | [5]; 10 µM 0 | [6]; 10 µM 0 | [7]; 10 µM 0 | [8]; 10 µM 0 | [9]; 10 µM 0 | [10]; 10 µM 0

CNC(=O)c1cc(Oc2ccc(NC(=O)Nc3ccc(Cl)c(C(F)(F)F)c3)c(F)c2)ccn1 [Regorafenib]
inactive: [1]; 2.5 µM 0 | [2]; 2.5 µM 0 | [3]; 2.5 µM 0 | [4]; 2.5 µM 0 | [5]; 2.5 µM 0 | [6]; 2.5 µM 0 | [7]; 2.5 µM 0 | [8]; 2.5 µM 0 | [9]; 2.5 µM 0 | [10]; 2.5 µM 0

FC(F)(F)c1ccc(CNc2ccc(Cc3c[nH]c4ncc(Cl)cc34)cn2)cn1 [Pexidartinib (hydrochloride)]
inactive: [1]; 10 µM 0 | [2]; 10 µM 0 | [3]; 10 µM 0 | [4]; 10 µM 0 | [5]; 10 µM 0 | [6]; 10 µM 0 | [7]; 10 µM 0 | [8]; 10 µM 0 | [9]; 10 µM 0 | [10]; 10 µM 0

COc1cc2c(Oc3ccc4[nH]c(C)cc4c3F)ncnc2cc1OCCCN1CCCC1 [Cediranib (maleate)]
inactive: [1]; 2.5 µM 0 | [2]; 2.5 µM 0 | [3]; 2.5 µM 0 | [4]; 2.5 µM 0 | [5]; 2.5 µM 0 | [6]; 2.5 µM 0 | [7]; 2.5 µM 0 | [8]; 2.5 µM 0 | [9]; 2.5 µM 0 | [10]; 2.5 µM 0

COc1cc2nccc(Oc3ccc(NC(=O)C4(C(=O)Nc5ccc(F)cc5)CC4)cc3)c2cc1OC [Cabozantinib (S-malate)]
inactive: [1]; 10 µM 0 | [2]; 10 µM 0 | [3]; 10 µM 0 | [4]; 10 µM 0 | [5]; 10 µM 0 | [6]; 10 µM 0 | [7]; 10 µM 0 | [8]; 10 µM 0 | [9]; 10 µM 0 | [10]; 10 µM 0

3 compounds from above, ordered by number of heavy atoms, falling.
C=CC(=O)Nc1cc(Nc2nccc(-c3cn(C)c4ccccc34)n2)c(OC)cc1N(C)CCN(C)C [Osimertinib (dimesylate)]
inactive: [1]; 2.5 µM 0 | [2]; 2.5 µM 0 | [3]; 2.5 µM 0 | [4]; 2.5 µM 0 | [5]; 2.5 µM 0 | [6]; 2.5 µM 0 | [7]; 2.5 µM 0 | [8]; 2.5 µM 0 | [9]; 2.5 µM 0 | [10]; 2.5 µM 0

CCN(CC)Cc1ccc(OC)c(-c2cc3c(-c4ccc(C(=O)O)c(C(C)C)c4)ccnc3[nH]2)c1
inactive: [1]; 2.5 µM 0 | [1]; 10 µM 0 | [2]; 2.5 µM 0 | [2]; 10 µM 0 | [3]; 2.5 µM 0 | [3]; 10 µM 0 | [4]; 2.5 µM 0 | [4]; 10 µM 0 | [5]; 2.5 µM 0 | [5]; 10 µM 0 | [6]; 2.5 µM 0 | [6]; 10 µM 0 | [7]; 2.5 µM 0 | [7]; 10 µM 0 | [8]; 2.5 µM 0 | [8]; 10 µM 0 | [9]; 2.5 µM 0 | [9]; 10 µM 0 | [10]; 2.5 µM 0 | [10]; 10 µM 0

Cc1[nH]c(/C=C2\C(=O)Nc3ccc(F)cc32)c(C)c1C(=O)NCCN1CCCC1 [Toceranib (phosphate)]
inactive: [1]; 2 µM 0 | [2]; 2 µM 0 | [3]; 2 µM 0 | [4]; 2 µM 0 | [5]; 2 µM 0 | [6]; 2 µM 0 | [7]; 2 µM 0 | [8]; 2 µM 0 | [9]; 2 µM 0 | [10]; 2 µM 0

Going on with the list:

C[C@H](CCC(=O)NCCS(=O)(=O)O)[C@H]1CC[C@H]2[C@@H]3[C@@H](O)C[C@@H]4C[C@H](O)CC[C@]4(C)[C@H]3CC[C@]12C [Tauroursodeoxycholate (dihydrate)]
inactive: [1]; 10 µM 0 | [2]; 10 µM 0 | [3]; 10 µM 0 | [4]; 10 µM 0 | [5]; 10 µM 0 | [6]; 10 µM 0 | [7]; 10 µM 0 | [8]; 10 µM 0 | [9]; 10 µM 0 | [10]; 10 µM 0

Nc1cncc(-c2cn3ccnc3c(Nc3ccc(N4CCN(C5COC5)CC4)cc3)n2)n1 [Lanraplenib (succinate)]
inactive: [1]; 10 µM 0 | [2]; 10 µM 0 | [3]; 10 µM 0 | [4]; 10 µM 0 | [5]; 10 µM 0 | [6]; 10 µM 0 | [7]; 10 µM 0 | [8]; 10 µM 0 | [9]; 10 µM 0 | [10]; 10 µM 0

Cc1cccc(/C=N/Nc2cc(N3CCOCC3)nc(OCCc3ccccn3)n2)c1 [Apilimod]
inactive: [1]; 2.5 µM 0 | [2]; 2.5 µM 0 | [3]; 2.5 µM 0 | [4]; 2.5 µM 0 | [5]; 2.5 µM 0 | [6]; 2.5 µM 0 | [7]; 2.5 µM 0 | [8]; 2.5 µM 0 | [9]; 2.5 µM 0 | [10]; 2.5 µM 0

CCS(=O)(=O)N1CC(CC#N)(n2cc(-c3ncnc4[nH]ccc34)cn2)C1 [Baricitinib]
inactive: [1]; 10 µM 0 | [2]; 10 µM 0 | [3]; 10 µM 0 | [4]; 10 µM 0 | [5]; 10 µM 0 | [6]; 10 µM 0 | [7]; 10 µM 0 | [8]; 10 µM 0 | [9]; 10 µM 0 | [10]; 10 µM 0

CC(C)Nc1cc(-c2c[nH]c(C(=O)N[C@H](CO)c3cccc(Cl)c3)c2)c(Cl)cn1 [Ulixertinib (hydrochloride)]
inactive: [1]; 10 µM 0 | [2]; 10 µM 0 | [3]; 10 µM 0 | [4]; 10 µM 0 | [5]; 10 µM 0 | [6]; 10 µM 0 | [7]; 10 µM 0 | [8]; 10 µM 0 | [9]; 10 µM 0 | [10]; 10 µM 0

N#CC[C@H](C1CCCC1)n1cc(-c2ncnc3[nH]ccc23)cn1 [Ruxolitinib]
inactive: [1]; 10 µM 0 | [2]; 10 µM 0 | [3]; 10 µM 0 | [4]; 10 µM 0 | [5]; 10 µM 0 | [6]; 10 µM 0 | [7]; 10 µM 0 | [8]; 10 µM 0 | [9]; 10 µM 0 | [10]; 10 µM 0
